Results taken from US20180355045A1 (LIMITED LIABILITY COMPANY ONCOMAX LLC ONCOMAX, published 2018).
Results are given in words; binding and its absence hold for the method and conditions named. Some results given as binding are weak or reduced against the parent protein; the word gives no strength.

Amino acid sequences for entries named in this document (tags omitted). A change or cut given only in a name is not applied to a line headed by its entry. Chains listed by the source or under a name are the forms on record and can include a tag or linker. Residues count along the entry.
recombinant human FGFR1 antigen PA-269#37 (P11362, residues 142-365): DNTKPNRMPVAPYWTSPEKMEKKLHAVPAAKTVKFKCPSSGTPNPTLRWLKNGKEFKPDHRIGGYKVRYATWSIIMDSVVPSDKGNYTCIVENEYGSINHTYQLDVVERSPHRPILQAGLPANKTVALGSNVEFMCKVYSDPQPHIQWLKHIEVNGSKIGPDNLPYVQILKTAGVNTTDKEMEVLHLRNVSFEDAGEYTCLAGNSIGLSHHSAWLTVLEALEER
commercial recombinant human FGFR1 (Sino Biologicals ref #10616-H08H) (P11362, form named): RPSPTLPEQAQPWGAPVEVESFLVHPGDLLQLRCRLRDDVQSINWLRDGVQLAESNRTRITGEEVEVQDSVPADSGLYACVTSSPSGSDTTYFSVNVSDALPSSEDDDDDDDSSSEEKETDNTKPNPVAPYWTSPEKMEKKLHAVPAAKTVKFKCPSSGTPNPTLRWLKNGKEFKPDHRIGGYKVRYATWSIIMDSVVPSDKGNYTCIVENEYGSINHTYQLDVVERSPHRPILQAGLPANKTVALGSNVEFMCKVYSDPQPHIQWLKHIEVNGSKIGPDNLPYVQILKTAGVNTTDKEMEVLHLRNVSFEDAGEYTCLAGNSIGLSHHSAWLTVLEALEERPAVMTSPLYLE

Columns and labels:
[1] = target: recombinant human FGFR1 antigen PA-269#37 (human) (UniProt P11362); experiment: ELISA, antigen coated on the plate
[2] = target: commercial recombinant human FGFR1 (Sino Biologicals ref #10616-H08H) (human) (UniProt P11362); experiment: ELISA, antigen coated on the plate

B1: humanized anti-FGFR1 antibody OM-RCA-01 (VH3/VL5) (antibody, human IgG1, kappa, V domains shown)
VH: QVQLQESGPGLVKPSQTLSLTCTVSGYSITSDYAWSWIRQHPGKGLEWIGYITYSGTTYYNPSLKSRVTISVDTSKNQFSLKLSSVTAADTAVYYCARDGNYFDYWGQGTLVTVSS
VL: DIQLTQSPSFLSASVGDRVTITCRASSSVSSSYLHWYQQKPGKAPKLLIYRTSTLQSGVPSRFSGSGSGTEFTLTISSLQPEDFATYYCQQWSGYPLTFGGGTKVEIKR
notes: Human IgG1 (IGHG1*03) / kappa; also called VH3A/L5; OM1
For B1, the binding [1] was “binds” and the binding [2] was “binds”.
